Experimental data from the supplement of paper PMC10849652.
The list shows a part of the results.

Amino acid sequences for entries named in this document (tags omitted). A change or cut given only in a name is not applied to a line headed by its entry.
UniProt Q86UD5: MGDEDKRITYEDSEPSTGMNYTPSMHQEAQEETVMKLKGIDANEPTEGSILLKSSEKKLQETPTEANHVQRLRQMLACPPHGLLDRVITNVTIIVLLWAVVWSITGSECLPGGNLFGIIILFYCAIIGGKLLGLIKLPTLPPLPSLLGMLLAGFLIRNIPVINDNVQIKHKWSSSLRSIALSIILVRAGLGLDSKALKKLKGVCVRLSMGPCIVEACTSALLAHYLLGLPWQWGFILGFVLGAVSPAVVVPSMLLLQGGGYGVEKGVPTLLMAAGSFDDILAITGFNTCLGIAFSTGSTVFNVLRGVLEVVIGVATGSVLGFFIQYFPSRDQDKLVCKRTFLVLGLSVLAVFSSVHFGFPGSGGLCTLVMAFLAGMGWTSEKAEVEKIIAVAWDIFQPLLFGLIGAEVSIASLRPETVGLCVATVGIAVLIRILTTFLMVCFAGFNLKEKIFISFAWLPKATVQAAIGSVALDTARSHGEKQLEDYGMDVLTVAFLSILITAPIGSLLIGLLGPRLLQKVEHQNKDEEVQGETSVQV
UniProt P16260: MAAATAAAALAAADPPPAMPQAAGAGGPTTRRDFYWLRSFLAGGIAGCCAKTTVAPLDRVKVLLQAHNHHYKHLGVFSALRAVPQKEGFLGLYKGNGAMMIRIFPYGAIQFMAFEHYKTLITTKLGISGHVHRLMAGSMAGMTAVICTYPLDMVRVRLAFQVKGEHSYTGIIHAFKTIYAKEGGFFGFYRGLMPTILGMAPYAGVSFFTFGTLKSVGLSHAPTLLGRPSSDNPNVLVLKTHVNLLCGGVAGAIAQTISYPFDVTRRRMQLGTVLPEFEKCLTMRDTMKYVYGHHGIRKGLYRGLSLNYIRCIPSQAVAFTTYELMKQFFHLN
UniProt Q96CQ1: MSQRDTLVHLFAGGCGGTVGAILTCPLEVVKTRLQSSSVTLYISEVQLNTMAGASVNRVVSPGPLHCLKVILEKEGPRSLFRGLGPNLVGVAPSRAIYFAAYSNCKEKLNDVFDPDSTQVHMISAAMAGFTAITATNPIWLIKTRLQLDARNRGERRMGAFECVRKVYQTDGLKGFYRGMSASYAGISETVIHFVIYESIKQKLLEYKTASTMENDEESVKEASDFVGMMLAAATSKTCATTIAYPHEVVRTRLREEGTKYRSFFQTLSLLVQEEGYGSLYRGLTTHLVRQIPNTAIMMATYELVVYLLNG
UniProt Q0VAQ4: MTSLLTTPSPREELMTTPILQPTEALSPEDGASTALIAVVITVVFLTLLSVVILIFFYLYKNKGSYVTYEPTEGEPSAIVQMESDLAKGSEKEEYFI
UniProt Q9BRV3: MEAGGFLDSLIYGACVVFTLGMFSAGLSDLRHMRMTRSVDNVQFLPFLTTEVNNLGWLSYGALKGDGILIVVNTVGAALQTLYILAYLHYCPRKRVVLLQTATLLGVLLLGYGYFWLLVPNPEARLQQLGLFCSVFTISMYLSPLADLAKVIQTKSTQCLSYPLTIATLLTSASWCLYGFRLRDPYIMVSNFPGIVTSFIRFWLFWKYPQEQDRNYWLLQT
UniProt Q9UGH3: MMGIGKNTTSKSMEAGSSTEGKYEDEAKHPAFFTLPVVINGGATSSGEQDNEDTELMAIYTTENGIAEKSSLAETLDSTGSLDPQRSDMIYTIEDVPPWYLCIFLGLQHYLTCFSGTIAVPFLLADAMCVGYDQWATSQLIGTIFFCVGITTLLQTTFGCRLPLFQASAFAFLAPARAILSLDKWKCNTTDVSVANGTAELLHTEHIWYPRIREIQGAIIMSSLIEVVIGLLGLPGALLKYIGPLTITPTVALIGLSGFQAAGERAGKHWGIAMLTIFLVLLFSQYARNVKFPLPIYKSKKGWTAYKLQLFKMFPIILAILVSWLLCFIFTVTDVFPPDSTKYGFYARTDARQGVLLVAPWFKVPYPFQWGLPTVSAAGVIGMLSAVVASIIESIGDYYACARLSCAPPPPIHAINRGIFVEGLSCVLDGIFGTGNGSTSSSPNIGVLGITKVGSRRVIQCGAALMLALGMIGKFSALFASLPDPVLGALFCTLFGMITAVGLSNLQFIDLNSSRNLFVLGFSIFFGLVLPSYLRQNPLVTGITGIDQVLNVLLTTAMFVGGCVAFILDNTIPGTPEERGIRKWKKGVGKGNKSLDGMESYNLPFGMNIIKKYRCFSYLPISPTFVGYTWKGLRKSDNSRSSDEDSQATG
UniProt Q9C0K1: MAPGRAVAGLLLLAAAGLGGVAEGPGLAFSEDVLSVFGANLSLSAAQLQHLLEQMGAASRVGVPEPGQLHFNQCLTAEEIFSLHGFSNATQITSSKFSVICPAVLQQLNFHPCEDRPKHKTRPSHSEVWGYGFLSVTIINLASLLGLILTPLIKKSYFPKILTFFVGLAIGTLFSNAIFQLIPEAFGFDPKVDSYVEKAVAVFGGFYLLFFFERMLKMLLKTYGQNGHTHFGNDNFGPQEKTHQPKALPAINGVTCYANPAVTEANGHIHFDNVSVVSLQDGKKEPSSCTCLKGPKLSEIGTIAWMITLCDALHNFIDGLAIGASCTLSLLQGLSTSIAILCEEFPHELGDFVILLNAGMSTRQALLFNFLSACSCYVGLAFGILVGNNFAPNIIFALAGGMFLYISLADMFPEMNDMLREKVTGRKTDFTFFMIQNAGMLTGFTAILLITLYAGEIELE
UniProt Q8IXU6: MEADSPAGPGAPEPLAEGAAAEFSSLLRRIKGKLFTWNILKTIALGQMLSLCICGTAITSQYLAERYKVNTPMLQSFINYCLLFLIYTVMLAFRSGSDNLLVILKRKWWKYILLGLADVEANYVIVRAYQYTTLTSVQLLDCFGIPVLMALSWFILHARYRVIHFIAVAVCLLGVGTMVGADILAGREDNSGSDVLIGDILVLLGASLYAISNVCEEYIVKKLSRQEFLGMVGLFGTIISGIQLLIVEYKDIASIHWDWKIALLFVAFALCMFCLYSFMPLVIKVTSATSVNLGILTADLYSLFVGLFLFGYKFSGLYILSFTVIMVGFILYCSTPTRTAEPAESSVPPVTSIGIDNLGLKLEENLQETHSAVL
UniProt Q8N755: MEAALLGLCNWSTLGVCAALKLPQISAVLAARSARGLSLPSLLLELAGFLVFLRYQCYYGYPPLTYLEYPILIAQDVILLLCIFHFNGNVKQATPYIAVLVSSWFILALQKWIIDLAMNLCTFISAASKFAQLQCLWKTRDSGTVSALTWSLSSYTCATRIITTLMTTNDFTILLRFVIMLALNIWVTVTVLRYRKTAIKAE
UniProt Q6J4K2: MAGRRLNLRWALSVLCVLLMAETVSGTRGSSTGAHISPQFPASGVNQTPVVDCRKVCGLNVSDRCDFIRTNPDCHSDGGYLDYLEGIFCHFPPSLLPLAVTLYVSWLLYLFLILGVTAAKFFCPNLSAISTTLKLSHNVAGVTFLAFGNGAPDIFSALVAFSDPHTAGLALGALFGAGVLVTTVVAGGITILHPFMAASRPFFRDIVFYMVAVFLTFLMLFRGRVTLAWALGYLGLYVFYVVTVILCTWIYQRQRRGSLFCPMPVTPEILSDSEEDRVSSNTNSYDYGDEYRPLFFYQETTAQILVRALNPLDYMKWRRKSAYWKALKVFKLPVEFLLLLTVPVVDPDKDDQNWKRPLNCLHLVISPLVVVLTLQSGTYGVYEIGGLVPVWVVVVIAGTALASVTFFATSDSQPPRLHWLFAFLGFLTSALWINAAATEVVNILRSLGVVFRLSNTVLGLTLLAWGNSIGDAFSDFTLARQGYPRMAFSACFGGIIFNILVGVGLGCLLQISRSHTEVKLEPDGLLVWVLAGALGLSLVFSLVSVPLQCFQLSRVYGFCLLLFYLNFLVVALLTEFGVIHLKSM
UniProt Q96A46: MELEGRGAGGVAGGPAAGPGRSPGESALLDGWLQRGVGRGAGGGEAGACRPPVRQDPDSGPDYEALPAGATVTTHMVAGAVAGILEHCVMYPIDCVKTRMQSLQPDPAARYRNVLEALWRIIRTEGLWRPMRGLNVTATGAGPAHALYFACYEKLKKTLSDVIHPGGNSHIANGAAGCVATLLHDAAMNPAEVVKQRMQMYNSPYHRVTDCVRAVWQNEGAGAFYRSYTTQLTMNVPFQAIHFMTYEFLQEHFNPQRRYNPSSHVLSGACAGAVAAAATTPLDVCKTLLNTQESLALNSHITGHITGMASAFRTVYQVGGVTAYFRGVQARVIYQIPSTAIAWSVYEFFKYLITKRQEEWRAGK
UniProt P84022, whole entry, looked up: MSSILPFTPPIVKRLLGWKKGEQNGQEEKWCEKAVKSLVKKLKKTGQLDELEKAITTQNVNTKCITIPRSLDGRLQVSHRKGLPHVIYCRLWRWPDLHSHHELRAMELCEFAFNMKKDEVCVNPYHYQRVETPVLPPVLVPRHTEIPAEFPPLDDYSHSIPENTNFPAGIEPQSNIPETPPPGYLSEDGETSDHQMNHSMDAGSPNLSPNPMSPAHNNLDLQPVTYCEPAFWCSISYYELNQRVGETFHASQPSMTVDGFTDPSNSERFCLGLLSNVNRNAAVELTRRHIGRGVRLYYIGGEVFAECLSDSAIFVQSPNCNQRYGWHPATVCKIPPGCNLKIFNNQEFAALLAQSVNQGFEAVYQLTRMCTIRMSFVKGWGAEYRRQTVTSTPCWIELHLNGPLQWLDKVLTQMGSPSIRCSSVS
UniProt Q9BZJ4: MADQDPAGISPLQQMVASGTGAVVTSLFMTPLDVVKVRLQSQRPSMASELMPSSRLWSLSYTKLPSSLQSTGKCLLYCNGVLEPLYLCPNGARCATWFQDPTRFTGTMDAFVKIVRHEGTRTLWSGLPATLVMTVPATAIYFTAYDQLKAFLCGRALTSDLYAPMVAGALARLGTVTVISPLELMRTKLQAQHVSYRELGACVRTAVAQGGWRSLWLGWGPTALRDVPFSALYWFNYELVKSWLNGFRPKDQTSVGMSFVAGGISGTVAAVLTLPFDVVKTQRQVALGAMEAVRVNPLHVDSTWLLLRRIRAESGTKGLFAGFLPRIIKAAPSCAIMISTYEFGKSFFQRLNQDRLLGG
UniProt Q99717: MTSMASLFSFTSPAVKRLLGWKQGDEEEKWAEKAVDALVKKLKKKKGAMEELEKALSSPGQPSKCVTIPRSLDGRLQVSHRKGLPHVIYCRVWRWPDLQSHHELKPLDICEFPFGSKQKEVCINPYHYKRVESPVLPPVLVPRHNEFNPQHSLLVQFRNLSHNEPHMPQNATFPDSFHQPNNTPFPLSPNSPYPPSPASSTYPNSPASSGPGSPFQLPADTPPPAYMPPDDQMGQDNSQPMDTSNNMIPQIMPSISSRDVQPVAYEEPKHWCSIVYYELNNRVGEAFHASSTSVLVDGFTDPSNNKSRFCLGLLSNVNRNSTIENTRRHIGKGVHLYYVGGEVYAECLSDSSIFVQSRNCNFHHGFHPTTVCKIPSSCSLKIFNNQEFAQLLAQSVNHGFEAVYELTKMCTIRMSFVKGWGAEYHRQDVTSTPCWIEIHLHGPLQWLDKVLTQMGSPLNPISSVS
UniProt Q9BV35: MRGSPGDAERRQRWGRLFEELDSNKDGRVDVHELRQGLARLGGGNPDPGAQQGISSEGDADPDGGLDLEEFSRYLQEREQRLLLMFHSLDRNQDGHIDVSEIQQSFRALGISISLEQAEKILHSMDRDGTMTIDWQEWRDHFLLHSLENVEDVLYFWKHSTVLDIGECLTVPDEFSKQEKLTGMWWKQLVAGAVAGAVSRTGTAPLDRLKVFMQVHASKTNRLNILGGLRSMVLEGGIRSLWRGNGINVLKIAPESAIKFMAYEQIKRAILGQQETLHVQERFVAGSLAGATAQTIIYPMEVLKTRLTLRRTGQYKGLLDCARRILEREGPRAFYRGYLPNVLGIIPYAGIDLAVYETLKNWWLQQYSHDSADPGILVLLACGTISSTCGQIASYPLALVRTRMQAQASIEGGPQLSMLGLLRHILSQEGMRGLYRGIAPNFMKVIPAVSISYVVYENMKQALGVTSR
UniProt Q86WA9: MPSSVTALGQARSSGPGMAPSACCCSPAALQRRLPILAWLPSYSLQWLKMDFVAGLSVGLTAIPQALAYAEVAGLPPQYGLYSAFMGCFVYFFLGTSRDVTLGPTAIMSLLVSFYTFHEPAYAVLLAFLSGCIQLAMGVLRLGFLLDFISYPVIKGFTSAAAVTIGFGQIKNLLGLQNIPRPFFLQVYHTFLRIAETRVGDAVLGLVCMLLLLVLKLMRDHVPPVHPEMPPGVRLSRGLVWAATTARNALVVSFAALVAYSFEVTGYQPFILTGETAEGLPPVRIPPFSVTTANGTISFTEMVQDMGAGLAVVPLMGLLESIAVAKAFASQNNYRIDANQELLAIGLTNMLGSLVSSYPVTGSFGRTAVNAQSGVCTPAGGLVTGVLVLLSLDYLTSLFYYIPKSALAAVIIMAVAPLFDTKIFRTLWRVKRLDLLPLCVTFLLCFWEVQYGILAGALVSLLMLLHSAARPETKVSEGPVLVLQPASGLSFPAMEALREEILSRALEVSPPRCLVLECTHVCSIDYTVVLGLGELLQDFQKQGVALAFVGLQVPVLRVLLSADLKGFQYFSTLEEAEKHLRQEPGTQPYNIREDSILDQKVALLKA

What was measured:
Test in all cases: log2 fold change, soluble protein after heating vs DMSO (PISA); higher = thermal stabilisation; K562 lysate, 10 uM; active = over 0.2 and 3.5 SD of the protein, either way, in both replicates (recomputed)
lapatinib = compound: CS(=O)(=O)CCNCc1ccc(-c2ccc3ncnc(Nc4ccc(OCc5cccc(F)c5)c(Cl)c4)c3c2)o1 [lapatinib]
Procedure, shortened: (§1)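 K562 pellets were dounce-homogenised in PBS pH 7.4 with 1 mM MgCl2, and the crude extract at 1 mg/mL protein was treated with 10 μM compound for 30 min. Aliquots were heated for 3 min across 48°C-58°C, pooled, and brought to 0.5% NP-40 at 4°C; soluble protein was the supernatant after 21,000xg for 90 min. Soluble protein was quantified by TMTpro 16plex LC-MS/MS with channel sums equalised, and reported as log2 fold change in thermal stability against DMSO controls, with values from duplicates.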

crizotinib = compound: C[C@@H](Oc1cc(-c2cnn(C3CCNCC3)c2)cnc1N)c1c(Cl)ccc(F)c1Cl [crizotinib]
Procedure, shortened: as §1

doramapimod = compound: Cc1ccc(-n2nc(C(C)(C)C)cc2NC(=O)Nc2ccc(OCCN3CCOCC3)c3ccccc23)cc1 [doramapimod]
Procedure, shortened: as §1

[1] = compound: C[C@H](C1=CC=C(C=C1)C(=O)NC2=C3C=CNC3=NC=C2)N
Procedure, shortened: as §1

gandotinib = compound: Cc1cc(Nc2cc(CN3CCOCC3)c3nc(C)c(Cc4ccc(Cl)cc4F)n3n2)n[nH]1 [gandotinib]
Procedure, shortened: as §1

[2] = compound: Cc1cccc(CC(=O)N2CCc3c2ccc(-c2cn(C)c4ncnc(N)c24)c3F)n1
Procedure, shortened: as §1

duvelisib = compound: C[C@H](Nc1ncnc2nc[nH]c12)c1cc2cccc(Cl)c2c(=O)n1-c1ccccc1 [duvelisib]
Procedure, shortened: as §1

tozasertib = compound: Cc1cc(Nc2cc(N3CCN(C)CC3)nc(Sc3ccc(NC(=O)C4CC4)cc3)n2)n[nH]1 [tozasertib]
Procedure, shortened: as §1

pictilisib = compound: CS(=O)(=O)N1CCN(Cc2cc3nc(-c4cccc5[nH]ncc45)nc(N4CCOCC4)c3s2)CC1 [pictilisib]
Procedure, shortened: as §1

bafetinib = compound: Cc1ccc(NC(=O)c2ccc(CN3CC[C@H](N(C)C)C3)c(C(F)(F)F)c2)cc1Nc1nccc(-c2cncnc2)n1 [bafetinib]
Procedure, shortened: as §1

Target	log2 fold change (lapatinib)	log2 fold change (crizotinib)	log2 fold change (doramapimod)	log2 fold change [1]	log2 fold change (gandotinib)	log2 fold change [2]	log2 fold change (duvelisib)	log2 fold change (tozasertib)	log2 fold change (pictilisib)	log2 fold change (bafetinib)
SLC9B2 (UniProt Q86UD5)	inactive: 0.042	inactive: -0.038	inactive: 0.173	–	–	–	–	–	–	–
SLC25A16 (UniProt P16260)	–	inactive: 0.014	inactive: -0.023	inactive: 0.059	inactive: 0.016	inactive: -0.033	–	–	–	–
SLC25A36 (UniProt Q96CQ1)	inactive: -0.019	inactive: 0.022	inactive: -0.011	inactive: 0.029	inactive: 0.024	inactive: -0.006	inactive: -0.122	inactive: -0.09	–	–
SLC44A1 (UniProt Q8WWI5)	–	–	–	inactive: -0.22	inactive: 0.045	inactive: 0.118	inactive: 0.081	–	–	–
SMAGP (UniProt Q0VAQ4)	inactive: 0.05	inactive: 0.129	inactive: -0.087	inactive: -0.145	inactive: 0.052	inactive: -0.014	inactive: 0.017	inactive: -0.051	–	–
SLC35A1 (UniProt P78382)	–	inactive: -0.223	inactive: 0.189	inactive: -0.088	inactive: 0.166	inactive: 0.142	–	–	inactive: -0.087	inactive: -0.147
SLC50A1 (UniProt Q9BRV3)	inactive: -0.161	inactive: -0.469	inactive: 0.138	inactive: -0.256	inactive: 0.108	inactive: 0.328	inactive: 0.126	–	–	–
SLC23A2 (UniProt Q9UGH3)	inactive: -0.237	inactive: 0.051	inactive: -0.09	inactive: -0.171	inactive: 0.126	inactive: 0.065	inactive: -0.015	inactive: 0.105	–	–
SLC41A3 isoform 9 (UniProt Q96GZ6)	–	–	–	inactive: -0.363	inactive: 0.103	inactive: 0.182	–	inactive: 0.063	inactive: -0.006	inactive: -0.078
SLCO4A1 (UniProt Q96BD0)	–	–	–	inactive: 0.016	inactive: 0.062	inactive: 0.012	–	–	active: -0.687	inactive: -0.334
SLFN14 (UniProt P0C7P3)	–	inactive: 0	inactive: 0.067	inactive: -0.137	inactive: 0.264	inactive: 0.237	–	inactive: -0.044	inactive: 0.043	inactive: 0.092
SLC39A8 (UniProt Q9C0K1)	inactive: 0.014	inactive: -0.074	inactive: 0.057	inactive: -0.115	inactive: 0.111	inactive: 0.085	–	inactive: -0.013	–	–
SLC35F2 (UniProt Q8IXU6)	inactive: -0.019	–	–	inactive: -0.228	inactive: 0.145	inactive: 0.175	inactive: 0.072	inactive: -0.023	inactive: -0.023	inactive: 0.021
SLC29A3 (UniProt Q9BZD2)	inactive: 0	inactive: 0.001	inactive: 0.052	inactive: -0.006	inactive: 0.032	inactive: 0.101	–	–	–	–
SLCO2B1 (UniProt O94956)	–	–	–	inactive: 0.067	inactive: 0.089	inactive: 0.05	–	inactive: 0.153	–	–
SLC66A3 (UniProt Q8N755)	inactive: 0.014	inactive: -0.11	inactive: -0.038	–	–	–	inactive: -0.047	–	–	–

Target	log2 fold change (lapatinib)	log2 fold change (crizotinib)	log2 fold change (doramapimod)	log2 fold change [1]	log2 fold change (gandotinib)	log2 fold change [2]	log2 fold change (duvelisib)	log2 fold change (tozasertib)	log2 fold change (pictilisib)	log2 fold change (bafetinib)
SLC8B1 (UniProt Q6J4K2)	inactive: -0.042	–	–	inactive: -0.113	inactive: 0.189	inactive: 0.221	inactive: -0.12	–	–	–
SLC35B1 isoform 2 (UniProt P78383)	inactive: -0.059	inactive: -0.038	inactive: -0.102	inactive: -0.271	inactive: 0.039	inactive: 0.298	inactive: 0.009	inactive: 0.032	–	–
SLU7 (UniProt O95391)	–	inactive: 0.054	inactive: -0.099	inactive: -0.187	inactive: 0.255	active: 0.367	inactive: 0.06	inactive: 0.028	inactive: 0.006	inactive: -0.267
SLC2A13 (UniProt Q96QE2)	–	–	–	inactive: -0.104	inactive: -0.014	inactive: 0.032	inactive: -0.022	inactive: -0.016	–	–
SLC25A35 (UniProt Q3KQZ1)	–	inactive: -0.009	inactive: -0.102	inactive: -0.089	inactive: 0.051	inactive: 0.189	–	inactive: 0.037	–	–
SLC25A28 (UniProt Q96A46)	–	inactive: 0.164	inactive: -0.016	–	–	–	–	inactive: -0.014	–	–
SMAD3 (UniProt P84022)	inactive: 0.037	inactive: -0.075	inactive: 0.024	–	–	–	inactive: -0.027	–	–	–
SLC25A39 (UniProt Q9BZJ4)	–	–	–	inactive: -0.22	inactive: -0.011	inactive: 0.253	inactive: 0.081	–	–	–
SLX4 (UniProt Q8IY92)	–	–	–	–	–	–	inactive: 0.155	–	–	–
SMAD5 (UniProt Q99717)	–	inactive: -0.017	inactive: 0.126	inactive: 0.056	inactive: -0.006	inactive: -0.016	inactive: 0.046	inactive: 0.128	inactive: -0.036	inactive: -0.413
SLC66A2 (UniProt Q8N2U9)	inactive: -0.049	–	–	–	–	–	inactive: 0.068	inactive: 0.038	inactive: -0.064	inactive: 0.012
SLC3A2 (UniProt F5H867)	inactive: -0.083	–	–	inactive: -0.2	inactive: 0.25	inactive: 0.292	–	–	inactive: -0.056	inactive: -0.193
SLC39A6 (UniProt Q13433)	inactive: -0.006	inactive: 0.094	inactive: -0.057	inactive: -0.007	inactive: -0.171	inactive: -0.268	–	–	–	–
SLC40A1 (UniProt Q9NP59)	inactive: -0.019	inactive: 0.111	inactive: -0.056	inactive: -0.164	inactive: 0.054	inactive: 0.018	inactive: 0.099	inactive: -0.035	–	–
SLC25A23 isoform 3 (UniProt Q9BV35)	inactive: -0.098	inactive: -0.049	inactive: 0.037	inactive: 0.147	inactive: -0.021	inactive: -0.1	inactive: 0.059	–	–	–
SLC26A11 (UniProt Q86WA9)	–	inactive: 0.028	inactive: 0.171	inactive: -0.083	inactive: -0.07	inactive: 0.109	–	–	–	–

As entered above:
log2 fold change (tozasertib), SLC35F2 (UniProt Q8IXU6) reads inactive: -0.023
log2 fold change (lapatinib), SLC23A2 (UniProt Q9UGH3) reads inactive: -0.237
